Measurements reported in PubChem BioAssay AID624150 (Cancer Research UK Cambridge, 2012).
Assay: 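Which chromatin factors steer differentiation of epidermal stem cells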 (primary screen). System: primary human epidermal keratinocytes. Knock-down reagent: siRNA pool against human genes, 1-2 µM siRNA in 20 µl nucleofection. Duration: 72 h after transfection plus 48 h differentiation (about 5 days). Treatment: five arms for 48 h: vehicle, AG1478 10 µM, BMP2/7 200 ng/ml, both together, or 10% serum. Detection: 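Transglutaminase 1 immunostaining divided by DNA staining in each well, background removed, then z-scored versus every test siRNA on that plate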. Direction: z-score, vehicle and z-score, AG1478 10 µM: higher = more differentiation marker per cell.
In all, the deposit lists 331 reagents; below is an unselected part. 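Each arm had three replicate z-scores, but only the first replicate is printed; higher values mean more differentiation marker per cell.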 Not all columns of the deposit are shown. Reagent sequences are not shown.

With SMARCC2, what does the deposit list?
z-score, vehicle: 1.52; z-score, AG1478 10 µM: 1.31

What is on record for HDAC9?
z-score, vehicle: 0.637; z-score, AG1478 10 µM: -0.854

What is on record for KDM4C?
z-score, vehicle: -0.297; z-score, AG1478 10 µM: -0.286

What is on record for PRMT1?
z-score, vehicle: 1.29; z-score, AG1478 10 µM: 1.17

How did the screen score CSNK2B?
z-score, vehicle: -0.0985; z-score, AG1478 10 µM: -2.76

For RBBP4, what does the deposit list?
z-score, vehicle: -0.737; z-score, AG1478 10 µM: -0.144

With SMARCA2, how do the results read?
z-score, vehicle: -0.0498; z-score, AG1478 10 µM: -0.288

With KAT5, what was measured?
z-score, vehicle: -1.09; z-score, AG1478 10 µM: 0.845

2 neighbouring records from above:
RBBP4 — z-score, vehicle = -0.737; z-score, AG1478 10 µM = -0.144
SMARCA2 — z-score, vehicle = -0.0498; z-score, AG1478 10 µM = -0.288

Continued:
Which result is listed for BRCA1?
z-score, vehicle: -0.144; z-score, AG1478 10 µM: 0.236

What did the screen give for RSF1?
z-score, vehicle: -0.546; z-score, AG1478 10 µM: 0.237

With PRDM11, what was measured?
z-score, vehicle: -1.51; z-score, AG1478 10 µM: -0.605

How did the screen score TDRD1?
z-score, vehicle: 1.2; z-score, AG1478 10 µM: 0.413
